Measurements as given in patent US20160201132A1, “GENE EXPRESSION BIOMARKERS OF LAQUINIMOD RESPONSIVENESS” (Teva Pharmaceutical Industries Ltd., priority 2013, published 2016).
Values joined by “and” are separate entries in the source; they are usually repeats but may differ in a detail not shown here. Identical values can stand only once. The source gives many values for each of these; only a part stands here.

System: PBMC of RRMS patients
Experiment: Gene expression microarray analysis (HG-U133A-2) of PBMC from RRMS patients treated with LAQ, ancillary study to ALLEGRO
Format: in vivo, human
Description: The goal of this ancillary study was to characterize gene expression changes and corresponding biological mechanisms induced in PBMC of RRMS patients by LAQ treatment. According to ALLEGRO clinical trial inclusion criteria, 25 patients were randomly assigned to receive LAQ (n=13, age 38.8±2.3 years, female/male ratio: 8/5) or placebo (n=12, age 37.2±3.4 years, female/male ratio: 8/4).
Peripheral blood samples were obtained from RRMS patients at baseline before start of LAQ treatment or placebo, after 0, 1, 6 and 24 month of treatment (visit 0, 1, 6 and 7 according to ALLEGRO clinical trial protocol correspondently) for gene microarray analysis.
Briefly, 1) Peripheral blood mononuclear cells (PBMC) were obtained from RRMS patients that participated in ALLEGRO and were treated daily with 0.6 mg LAQ or placebo. PBMC were subjected for gene expression analysis (HU-133A-2-Affymatrix arrays) at baseline and at 1 and 6 months of LAQ treatment; 2) Data was analyzed by Partek Genomics Solution software. Most informative genes (MIGs) were defined as those that differentiated between groups with p<0.01. Gene functional annotation, enrichment and pathway analysis were performed by Ingenuity software. For each time point, genes that changed in placebo group were excluded from further analysis; and 3) Verification of LAQ related mechanism was performed by Western blot.
PBMC were extracted from 15 ml peripheral blood, separated by Ficoll-Hypaque gradient. Total RNA was extracted using both Trizol (Invitrogen, USA) and Phase-Lock-Gel columns (Eppendorf, Germany) including a DNase digestion step. RNA integrity was assessed by RNA Experion automated electrophoresis system (Bio-Rad Laboratories, Hercules, Calif.).
Probe synthesis using 3 μg total RNA, hybridization, detection, and scanning was performed according to the standard Affymetrix, Inc. USA protocols; cDNA was synthesized using the Two-Cycle cDNA Synthesis Kit (Affymetrix, Inc., USA), and in-vitro transcription performed with the GeneChip IVT Labeling Kit (Affymetrix, Inc., USA). The biotin-labeled IVT-RNA was hybridized to HG-U133A-2 arrays containing 18,400 gene transcripts, each corresponding to 14,500 well-annotated human genes, washed in a GeneChip Fluidics Station 450 (Hewlett Packard, USA, GeneArray-™ scanner G2500A) and scanned according to the manufacturer's protocol (Affymetrix, Inc., USA).
Data analysis was performed on Partek Genomics Solution software (www.partek.com; Partek Incorporated, St. Louis, Mo.). Expression values were computed from raw CEL files by applying the Robust Multi-Chip Average (RMA) background correction algorithm. RMA correction included: 1) values background correction; 2) quintile normalization; 3) log 2 transformation; and 4) median polish summarization. The ANOVA, Repeated Measures and correlation analysis implicated in Partek software ware applied to evaluate LAQ effects. Most informative genes MIGs were defined as those that differentiated between experimental groups with p<0.01. All p-values were calculated for False Discovery Rate (FDR) multiple test correction at p=0.05.
Additionally, significance of individual genes was tested by parametric T-test and non parametric Mann-Whitney test using Bootstrapping approach based on repeated permutations of the data with 5% FDR for multiple testing.
Gene functional annotation, enrichment, and pathway analyses to identify the leading biological pathways that operated under LAQ treatment were performed by Ingenuity Pathways Analysis software (www.ingenuity.com).
ANOVA analysis was used to compare PBMC gene expression after 1, 6 or 24 month of LAQ treatment with baseline gene expression.
For each time point inventors performed analysis source of variation in dataset. (FIG. 1). Age, gender and batch effects were considered as confounders regarding LAQ or Placebo related changes. For each time point genes associated with Placebo effect were evaluated and excluded from further analysis. […]

Structure (SMILES): CCN(C(=O)c1c(O)c2c(Cl)cccc2n(C)c1=O)c1ccccc1 [LAQ, 5-chloro-N-ethyl-4-hydroxy-1-methyl-2-oxo-N-phenyl-1,2-dihydroquinoline-3-carboxamide]
- Fold-Change (4.0 vs. 0.0) (gene SI, six months of treatment): −1.1522
- Fold-Change (4.0 vs. 0.0) (gene SL1T1): −1.185
- Fold-Change (4.0 vs. 0.0) (gene SLC6A8, after six months of LAQ): −1.241
- Fold-Change (4.0 vs. 0.0) (gene SLC6A15, six months of treatment): −1.1479
- Fold-Change (4.0 vs. 0.0) (gene SLC7A1, after six months of LAQ): −1.29
- Fold-Change (4.0 vs. 0.0) (gene SLC8A2): −1.177
- Fold-Change (4.0 vs. 0.0) (gene SLC9A3): −1.187
- Fold-Change (4.0 vs. 0.0) (gene SLC9A5, six months of treatment): −1.16
- Fold-Change (4.0 vs. 0.0) (gene SLC10A2, after six months of LAQ): −1.134
- Fold-Change (4.0 vs. 0.0) (gene SLC11A2, after six months of LAQ): −1.27
- Fold-Change (4.0 vs. 0.0) (gene SLC13A2, after six months of LAQ): −1.14
- Fold-Change (4.0 vs. 0.0) (gene SLC17A1, after six months of LAQ): −1.141
- Fold-Change (4.0 vs. 0.0) (gene SLC18A3, PBMC, six months of LAQ treatment): −1.111
- Fold-Change (4.0 vs. 0.0) (gene SLC19A1, after six months of LAQ): −1.268
- Fold-Change (4.0 vs. 0.0) (gene SLC22A6, after six months of LAQ): −1.14
- Fold-Change (4.0 vs. 0.0) (gene SLC27A6, PBMC, six months of LAQ treatment): −1.093
- Fold-Change (4.0 vs. 0.0) (gene SLC37A1, PBMC, six months of LAQ treatment): −1.115
- Fold-Change (4.0 vs. 0.0) (gene SLC45A2): −1.188
- Fold-Change (4.0 vs. 0.0) (gene SLCO1A2, after six months of LAQ): −1.14
- Fold-Change (4.0 vs. 0.0) (gene SLCO1B3, PBMC, six months of LAQ treatment): −1.102
- Fold-Change (4.0 vs. 0.0) (gene SLCO2A1, PBMC, six months of LAQ treatment): −1.121
- Fold-Change (4.0 vs. 0.0) (gene SMAD3, after six months of LAQ): −1.225
- Fold-Change (4.0 vs. 0.0) (gene SMAD4, after six months of LAQ): −1.2306
- Fold-Change (4.0 vs. 0.0) (gene SMAD6, after six months of LAQ): −1.138
- Fold-Change (4.0 vs. 0.0) (gene SMAD9, after six months of LAQ): −1.1293
- Fold-Change (4.0 vs. 0.0) (gene SMARCA2, six months of treatment): −1.16
- Fold-Change (4.0 vs. 0.0) (gene SMOX, after six months of LAQ): −1.34
- Fold-Change (4.0 vs. 0.0) (gene SMR3A /// SMR3B, six months of treatment): −1.148
- Fold-Change (4.0 vs. 0.0) (gene SMR3A, after six months of LAQ): −1.138
- Fold-Change (4.0 vs. 0.0) (gene SNAI2, six months of treatment): −1.157
- Fold-Change (4.0 vs. 0.0) (gene SNTB2, six months of treatment): −1.144
- Fold-Change (4.0 vs. 0.0) (gene SNX1, six months of treatment): −1.148
- Fold-Change (4.0 vs. 0.0) (gene SORBS1): −1.191
- Fold-Change (4.0 vs. 0.0) (gene SOSTDC1, after six months of LAQ): −1.134
- Fold-Change (4.0 vs. 0.0) (gene SOX11, PBMC, six months of LAQ treatment): −1.109
- Fold-Change (4.0 vs. 0.0) (gene SOX14, after six months of LAQ): −1.134
- Fold-Change (4.0 vs. 0.0) (gene SP2, six months of treatment): −1.159
- Fold-Change (4.0 vs. 0.0) (gene SPAG11A, after six months of LAQ): −1.142
- Fold-Change (4.0 vs. 0.0) (gene SPAG11B, after six months of LAQ): −1.1317
- Fold-Change (4.0 vs. 0.0) (gene SPANXB1 /// SPANXB2 /// SPANXF1, six months of treatment): −1.16
- Fold-Change (4.0 vs. 0.0) (gene SPDEF, after six months of LAQ): −1.138
- Fold-Change (4.0 vs. 0.0) (gene SPINK5): −1.189
- Fold-Change (4.0 vs. 0.0) (gene SPINLW1, after six months of LAQ): −1.239
- Fold-Change (4.0 vs. 0.0) (gene SPP2, six months of treatment): −1.16
- Fold-Change (4.0 vs. 0.0) (gene SPRR1A, after six months of LAQ): −1.133
- Fold-Change (4.0 vs. 0.0) (gene SPRY1, after six months of LAQ): −1.31
- Fold-Change (4.0 vs. 0.0) (gene SQSTM1, six months of treatment): −1.146
- Fold-Change (4.0 vs. 0.0) (gene SRCAP, six months of treatment): −1.159
- Fold-Change (4.0 vs. 0.0) (gene SRPK1, after six months of LAQ): −1.247
- Fold-Change (4.0 vs. 0.0) (gene SRPX2, after six months of LAQ): −1.229
- Fold-Change (4.0 vs. 0.0) (gene SSX3): −1.189
- Fold-Change (4.0 vs. 0.0) (gene SSX3, after six months of LAQ): −1.137
- Fold-Change (4.0 vs. 0.0) (gene SSX4 /// SSX4B, after six months of LAQ): −1.132
- Fold-Change (4.0 vs. 0.0) (gene ST6GALNAC5, PBMC, six months of LAQ treatment): −1.119
- Fold-Change (4.0 vs. 0.0) (gene STAB1, PBMC, six months of LAQ treatment): 1.462 and 1.522
- Fold-Change (4.0 vs. 0.0) (gene STARD8, after six months of LAQ): −1.284
- Fold-Change (4.0 vs. 0.0) (gene STC1, after six months of LAQ): −1.267
- Fold-Change (4.0 vs. 0.0) (gene STC1, six months of treatment): −1.159
- Fold-Change (4.0 vs. 0.0) (gene STS, PBMC, six months of LAQ treatment): −1.122
- Fold-Change (4.0 vs. 0.0) (gene SULT1C2, after six months of LAQ): −1.137
- Fold-Change (4.0 vs. 0.0) (gene SULT2A1, PBMC, six months of LAQ treatment): −1.098
- Fold-Change (4.0 vs. 0.0) (gene SYDE1, six months of treatment): −1.159
- Fold-Change (4.0 vs. 0.0) (gene SYN1, after six months of LAQ): −1.237
- Fold-Change (4.0 vs. 0.0) (gene SYNPO2L, PBMC, six months of LAQ treatment): −1.0912
- Fold-Change (4.0 vs. 0.0) (gene SYT1, six months of treatment): −1.151
- Fold-Change (4.0 vs. 0.0) (gene SYT5, after six months of LAQ): −1.1399
- Fold-Change (4.0 vs. 0.0) (gene TAAR5, after six months of LAQ): −1.229
- Fold-Change (4.0 vs. 0.0) (gene TACR3, six months of treatment): −1.161
- Fold-Change (4.0 vs. 0.0) (gene TACSTD2, six months of treatment): −1.147
- Fold-Change (4.0 vs. 0.0) (gene TAF1): −1.1905
- Fold-Change (4.0 vs. 0.0) (gene TAF4): −1.188
- Fold-Change (4.0 vs. 0.0) (gene TAL1, after six months of LAQ): −1.293
- Fold-Change (4.0 vs. 0.0) (gene TAOK2, six months of treatment): −1.145
- Fold-Change (4.0 vs. 0.0) (gene TAS2R9, after six months of LAQ): −1.134
- Fold-Change (4.0 vs. 0.0) (gene TBX2, six months of treatment): −1.145
- Fold-Change (4.0 vs. 0.0) (gene TBX10): −1.19
- Fold-Change (4.0 vs. 0.0) (gene TCEB3B, after six months of LAQ): −1.13
- Fold-Change (4.0 vs. 0.0) (gene TCF20, after six months of LAQ): −1.2525
- Fold-Change (4.0 vs. 0.0) (gene TCL6, after six months of LAQ): −1.127
- Fold-Change (4.0 vs. 0.0) (gene TEAD4, PBMC, six months of LAQ treatment): −1.111
- Fold-Change (4.0 vs. 0.0) (gene TEF, after six months of LAQ): −1.135
- Fold-Change (4.0 vs. 0.0) (gene TEX11, after six months of LAQ): −1.124
